# Results from publication PMC7819943, “Rice protein-binding microarrays: a tool to detect cis-acting elements near promoter regions in rice”.
# The list shows a part of the results.
# Molecular target: T1, OsSMF1 (Oryza sativa, UniProt Q6ZLB0 1-436)
# T1 sequence: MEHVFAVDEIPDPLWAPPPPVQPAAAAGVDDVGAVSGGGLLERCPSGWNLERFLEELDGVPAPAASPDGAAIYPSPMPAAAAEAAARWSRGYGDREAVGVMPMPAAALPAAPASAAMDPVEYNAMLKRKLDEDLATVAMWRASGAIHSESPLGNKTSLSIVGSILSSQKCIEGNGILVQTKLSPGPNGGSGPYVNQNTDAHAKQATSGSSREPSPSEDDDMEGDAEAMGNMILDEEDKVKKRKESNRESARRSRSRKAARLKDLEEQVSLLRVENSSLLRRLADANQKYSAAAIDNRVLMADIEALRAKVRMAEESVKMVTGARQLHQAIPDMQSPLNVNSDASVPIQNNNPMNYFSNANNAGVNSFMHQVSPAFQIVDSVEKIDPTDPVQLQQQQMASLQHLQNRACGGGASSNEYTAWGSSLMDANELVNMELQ
# Assay: protein-binding microarray (RPBM); PBS, 2% BSA, 51.3 ng/ul salmon testes DNA, 50 uM zinc acetate, 200 nM TF, 25 C, 1 h; high values mean tight binding
# Details: protein: recombinant; tags: N-terminal polyhistidine and DsRed monomer fusion (pET32a); chain copies: 2; label: CyDye5-dUTP incorporated in the synthesized complementary strand; 3' TTTTT single-stranded linker to array surface; dsDNA, one strand shown
# Outline: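 For the binding signal, per-feature fluorescence intensity was read in arbitrary units on an Axon 4000B scanner. Before scanning, a 2% BSA-blocked custom Agilent array made double-stranded with Cy5-dUTP was washed after 1 h at 25 °C with 200 nM protein and 50 µM zinc acetate. The proteins were Ni–NTA-purified transcription factors with N-terminal polyhistidine and DsRed fusions, expressed in E. coli BL21-CodonPlus.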
row,Sequence,binding signal
1,GTCCGAGACTCCGAGTCCACCTCTGCCACTGCCACGACGCCGGAGTCACCTAGTGCAG,4880 fluorescence intensity (a.u.)
2,AGATCTGCACAACCATAACGGCTAAAGAGGAGATACCAAACGGAGTCACCTAGTGCAG,65500 fluorescence intensity (a.u.)
3,AAGATCAATCTGAAGAGTAGGCTCCACGTGTAGATGGGGACGGAGTCACCTAGTGCAG,8830 fluorescence intensity (a.u.)
4,ACTAGTAATGCCACGCATCGTATTATCCAATCTGAGATACCGGAGTCACCTAGTGCAG,4560 fluorescence intensity (a.u.)
5,GGTGACGGCTGGTGTGGGTGTAGGGTGGCCGCGCGGTACGCGGAGTCACCTAGTGCAG,19900 fluorescence intensity (a.u.)
6,AGCATTAAAATGTGGACGAAAGAAACTAATTGCATAGTTTCGGAGTCACCTAGTGCAG,13600 fluorescence intensity (a.u.)
7,CTGATCGCGTCACTTTACGCGTGAAATTTCGTAATAAAGGCGGAGTCACCTAGTGCAG,3740 fluorescence intensity (a.u.)
8,CCTGGTTGGTTTGGCTCGCACGTGGCGCGTCGTCCTACGCCGGAGTCACCTAGTGCAG,5510 fluorescence intensity (a.u.)
9,GATGGATTACCATATTGCATCATCACTCATCAGTAAGAAACGGAGTCACCTAGTGCAG,3710 fluorescence intensity (a.u.)
10,GCATCTTTGGAGCGTTTGTAGGAGGACACGTGGCGGCTTACGGAGTCACCTAGTGCAG,13700 fluorescence intensity (a.u.)
11,GCAGTGGATCCAGTTGACGGTTGCAAGAGGAAGATGCTTACGGAGTCACCTAGTGCAG,3350 fluorescence intensity (a.u.)
12,AATTTCTAGTATTACAGTTGAGGGATACAATTTAGATTCACGGAGTCACCTAGTGCAG,25000 fluorescence intensity (a.u.)
13,CGTCCCGCACTCCGTCAACACCTCGTCGGCGCTCAACTTCCGGAGTCACCTAGTGCAG,4590 fluorescence intensity (a.u.)
14,CAGCTGTGATGTTTAACAATATGCTATCTGGCACATGCACCGGAGTCACCTAGTGCAG,32100 fluorescence intensity (a.u.)
15,TGATACGATGACGTTTGGGTGGTTGGATATATATCATGATCGGAGTCACCTAGTGCAG,5350 fluorescence intensity (a.u.)
16,ATAAAAGAGAAGAGCAGCAGGCCAGCTGCAGGACGGACTTCGGAGTCACCTAGTGCAG,3820 fluorescence intensity (a.u.)
17,CCCGGAACGAGATCGTCTGACGTTTCTTCCCCATCTCTCGCGGAGTCACCTAGTGCAG,4480 fluorescence intensity (a.u.)
18,AAAGAAATATTCGTTGTCATCTGAATCATGCAGATCGATCCGGAGTCACCTAGTGCAG,4080 fluorescence intensity (a.u.)
19,TTTCTTACTACCCAGTGCTAAAAGAGTATTACACGTTAGGCGGAGTCACCTAGTGCAG,3140 fluorescence intensity (a.u.)
20,CACCACGACGAACCCCAACGCGAGCGAGCGGGAGGTGGCGCGGAGTCACCTAGTGCAG,15400 fluorescence intensity (a.u.)
21,AGTATCACAATATGAGTACATTAGCTTATGCACCTCCCATCGGAGTCACCTAGTGCAG,27400 fluorescence intensity (a.u.)

# Given as tab-separated lines: entries from further up.
row	Sequence	binding signal
17	CCCGGAACGAGATCGTCTGACGTTTCTTCCCCATCTCTCGCGGAGTCACCTAGTGCAG	4480 fluorescence intensity (a.u.)
18	AAAGAAATATTCGTTGTCATCTGAATCATGCAGATCGATCCGGAGTCACCTAGTGCAG	4080 fluorescence intensity (a.u.)

# The listing continues:

row,Sequence,binding signal
1,CGTGACCTTGTTTGTATATCCACATACGCGAGTTCACATCCGGAGTCACCTAGTGCAG,3340 fluorescence intensity (a.u.)
2,CAAGCTCATCAACTTCGTTCGGTCCAAGGTGCGTCAGGGTCGGAGTCACCTAGTGCAG,3180 fluorescence intensity (a.u.)
3,CTAAATGATCTCTTTATTAATCCCTTGTACACCTGTAACCCGGAGTCACCTAGTGCAG,19800 fluorescence intensity (a.u.)
4,GTGCCATCTAAGCGTCACGTCAAACACCACATACCAGGTCCGGAGTCACCTAGTGCAG,3140 fluorescence intensity (a.u.)
5,ATCATCAAGATTGATCCAAGAAGGAGCGAGAGCTTAGCTTCGGAGTCACCTAGTGCAG,32200 fluorescence intensity (a.u.)
6,AGAATGCTTAGTCATTTGGGTCGAGGAGGGTAAGTCCTCCCGGAGTCACCTAGTGCAG,6050 fluorescence intensity (a.u.)
7,TCCATGGCGGCTGGCTATACCTTTCTGCACTACATTTGCACGGAGTCACCTAGTGCAG,34100 fluorescence intensity (a.u.)
8,GATGTTTCGGATGACAAGTTCCTGTCATCGCATCTGATTTCGGAGTCACCTAGTGCAG,3520 fluorescence intensity (a.u.)
9,TCAAGATCATGAAAACCTTAACTTCCCTATATTTCACTTACGGAGTCACCTAGTGCAG,24600 fluorescence intensity (a.u.)
10,CATCCTCGCCGTCATTTTGCGCCGCCTCTTGGACACCCGCCGGAGTCACCTAGTGCAG,3460 fluorescence intensity (a.u.)
11,CAAACAAACCGCTCGTGTGCACAATACTACCAAATCAACGCGGAGTCACCTAGTGCAG,3370 fluorescence intensity (a.u.)
12,CTCCTCCTCCGGCCACGTCGACGTCGCACCAACCGCCGCCCGGAGTCACCTAGTGCAG,14700 fluorescence intensity (a.u.)
13,CGCTGGGACTTCTCTGCTATCTTTTCCTGTGTCTACATTTCGGAGTCACCTAGTGCAG,32800 fluorescence intensity (a.u.)
14,CTCCTTGACAACCAGCACCGATCCCTGAGTCACCCAACGACGGAGTCACCTAGTGCAG,6120 fluorescence intensity (a.u.)
15,CGTACGCGTGGTGTGGATAAGCCGCTTGTGGCCGCCTCACCGGAGTCACCTAGTGCAG,3520 fluorescence intensity (a.u.)
16,GTCGCGTGACTCGCATCACCCCTCACCACAACGATGCGAGCGGAGTCACCTAGTGCAG,3170 fluorescence intensity (a.u.)
17,TAGTTTAAACTTAAAAGGGTGCTAAGTCATTGGTGTTGCCCGGAGTCACCTAGTGCAG,3320 fluorescence intensity (a.u.)
18,TTCTCTGTAGAAGAAGAGAGTTGATTCAATTTATAAGGAACGGAGTCACCTAGTGCAG,37900 fluorescence intensity (a.u.)
19,AGAAAGTAACAATCCCGCTATTATTACGTCATATTTCCGCCGGAGTCACCTAGTGCAG,7860 fluorescence intensity (a.u.)
20,ATACGTGTGCCACGTTGGCCAAAACCGCTTTAGATTAGGTCGGAGTCACCTAGTGCAG,10900 fluorescence intensity (a.u.)
21,GGCCGATGAAGCCCCACCAGTCGTGGTCGGCGACGTGGCGCGGAGTCACCTAGTGCAG,7250 fluorescence intensity (a.u.)
